Source: PMC7929561
Results are given in words; binding and its absence hold for the method and conditions named. Binding seen in cells or lysates may run through a third protein. These calls come from enrichment with a bait or labelling near it, and not all partners need be listed. Values belong to the binder of their own block, whether it stands above or below them.

Target: GFP-tagged, full-length Dystroglycan (Dg::GFP) (Drosophila melanogaster)
Experiment: affinity purification with mass spectrometry; Dg::GFP immunoprecipitated with GFP-Trap beads (anti-GFP) from lysates of adult fly heads in RIPA buffer (50 mM Tris-HCl pH 7.5, 125 mM NaCl, 0.5% NP40, 0.25% Na-deoxycholate); SDS-PAGE, in-gel Lys-C digestion, LC-MS/MS; proteins enriched at least twofold over control in two biological replicates taken as Dg interactors

binding: binds
B3: like-AP180 (lap) (protein, UniProt Q9VI75 1-468)
chain: MTMAGQTINDRLLAARHSLAGQGLAKSVCKATTEECIGPKKKHLDYLVHCTNEPNVSIPHLANLLIERSQNANWVVVYKSLITTHHLMAYGNERFMQYLASSNSTFNLSSFLDKGTVQDGGMGVPGGRMGYDMSPFIRRYAKYLNEKSLSYRAMAFDFCKVKRGKEEGSLRSMNAEKLLKTLPVLQAQLDALLEFDCQSNDLSNGVINMSFMLLFRDLIRLFACYNDGIINLLEKYFDMNKKHARDALDLYKKFLVRMDRVGEFLKVAENVGIDKGDIPDLTKAPSSLLDALEQHLATLEGRKVSAANTPTQSSSSAFGTAAASSKFDTTNGIDEQLKAQVLAEEEAAMNQYKSKVSSPTSSGAAGASAALTNPFLSSPPAAQAGQPIVDLFGAASAQPAAAAAATKASDDLLQLGNPFADMFDASGGGAAAVGATGNAGDGTAKYDGGAGSSPFDWGATDDDGGAAQ

binding: binds
B6: Stoned B (stnB) (protein, UniProt Q24212 1-1262)
chain: MANPFLMDEDLDGCDAAANPFLMQSEPEPSSDNPFMAATVASNPFAFGADDLELGAEPEAEATHDNDLDPAMSFFGTTIEAEDDTLSLKSGAEEEDEGKKPPQSQPQLQSHAHPHPPPPRPLVPPQSTQDLISTVSSQLDETSSELLGRIPATRSPSPVSMRDLHSPSPTPDSGLADLLDVSVDSGSSAHTQGIEADLISGVAGGVRLDNPFAVPTAVPNIQAAVPLPATPIKQPPRPPPPRPAPPRPAPPGQAAPQRPPPPLAAVNPPPAAPEADDLLDMFGTTACKPAKPPPPKSKEDILSLFEQPHVPLSQPASKPDLLHDDLDETIGEGEPPEQEEPDTEQSNEISSRDEPVFTSLLIRPDESTHDITSQPQAATGLERQVNNMAAPSGTASTQRATTPDIEITTVEDLPRSDDEDEPEAMQEPETETKPQIEPDTEPEIVSEHSPPTERLVTQAALVDGELIAAEPEPEEMDTGLDFPLASSGQLSANPFASPDEEEPNFAPMPAAVANIFAVNDPDSQMETPKAPSHTANIFASDPDEFDAFSAKFDSVKKDNISIMDGFGGSGAITPTGGDAWGGSAFGSTTISANACGDTNSADDGFGNDDDDFYAMQAPARADSVESVDKDFSVVIRPMAEETSGVAPQLAPPPPPARGVNQAQTTSLPGLTVNPFEDVSGFPAPGLPPTDGTAIKRTDSQDTPQTPLYDEDVSQPLEEFPRLHYIGPGWEMQLRQPNKKKITGQRFWKKIVVRLVVQNDVPVVQLLNQAGDKQPFQELPLQPSYSVSEIGAQQYDQFGKIFTMKLQYIFYKERPGVRPGQVTKAERITNKLTKFAQYAIAGDYEGVKEFGSDLKKLGLPVEHAPQSSQLFKIGSMNYEDMKQFSVCIEEALFKIPALRERALTYKMEEVQVTAVDEITVEQDFEGKILKQIARVRLFFLAFLTGMPTIELGVNDMWRQGKEVVGRHDIIPVATEEWIRLEAVEFHSVVNQKEYERTRTIKFQPPDANYIELLRFRVRPPKNRELPLQLKATWCVSGNKVELRADILVPGFTSRKLGQIPCEDVSVRFPIPECWIYLFRVEKHFRYGSVKSAHRRTGKIKGIERILGAVDTLQESLIEVTSGQAKYEHHHRAIVWRCPRLPKEGQGAYTTHQLVCRMALTSYDQIPSELAPYAFVEFTMPATQVSHTTVRSVSVQDSDGDEPPEKYVRYLARHEYKVGIETTHGESTNAYLAATRPIREEPPTTATKPTASPVAPSDSDTDSN

Further lines, the binder ahead of its results:

B1: Exo70 (protein, UniProt Q9VSJ8 1-693)
chain: MNNLDSSLQAHNKLEKEATNLALLKDRVDKYHDLSTQMSSILTIFEKRLGNLEQTILPVYQETEQLQKRQQNLEATLNCLESVLSHYDVSQEVCQLIHQGPVEGNISVFLDALAKLRDANDYFRHNNSQSVELENVTSLFNTGCEGLSQHYSMLLKKHSAPLKPVELLDLIYIEDDSSDEYTSFRQLSQTTREELYTISHWLEQNLREYTNIYATERGEVVLRSLQLLKDHQKSNSWGHEALRPRHSGRQTEPKKTTSARLQQIFEKKANKLYLRATQTIEQSTGFSIKKASSHSDHLTSEDLMDGDQELDKYLVMLLGLQRLLNWERAIMIDIIPQSKHNEVFATLAYNAIDLVVKDAEAITQRILRCISRKEWTSALGIFSALKRVILLQPDIDRTYDPAQREQLKKVLKKLQHTGAKALEHFLDVVKGESSTNIVGQSNVPKDATVHELTSNTIWFIEHLYDHFDVIGSILAQDVLYSTQLDTILMKKALPVEERNKALLAIYIKKALAELNLSIMNKCEQYNDQATKHLFRLNNIHYILKSLQRSNLIDLVTLAEPECEHSYMEMIRELKASYQKTWSKMLVGIYSLDELPKPVAGKVKDKDRSVLKERFSNFNKDFEEACKIQRGISIPDVILREGIKRDNVEHILPIYNRFYEIYSGVHFSKNPDKYVKYRQHEINAMLSKLFDDSA
binding: binds

B2: Sec10 (protein, UniProt Q9XTM1 1-710)
chain: MLSQYMEEFEQEPFEVGEFIERLTWRTNNELQNSEDFHPVALHDTFIQTIKDLKILQEKQQSKCERLEESLRQEKESHAKKIAKLQERHQTAIDVFGQLDEKINSVAGKIMHLGEQLENVNTPRSRSVEAQKLLNFMSEFLAAGPVIVNDIFADAARLSEAADVIQKLYAISQDLPPGNFAESKRKIEKKYDEVERRLIEEFATAQKSEDIERMKTLAQILSQFKGYTQCVDAYIEQSQMQPYSGKDIFIGIVPLCKHHYEIIQKVFANPQQVMSKFILNIYQLKLHQYAMTKLEDKKDEEKYLRTLYELYSRTLKLSTDLQIYMSTIDDDLLQKLTQQIFIKHLAGYAEMETKCLTAKCSTELEKFYASKKHQKTATTKGFRRNMEVLIATRANINIAAIEDYGGETFLSEELAINMLQEAKASLKRCRLLSNETELPGNAIKLNDILLRFLMHEHVDYALELGLQAVPLAEGRVFPQLYFFDVVQKTNIIVHLLDKLCHTSVIPCVSNTPKYSDYVFKKRILMEQIETKLDQGLDRSISAVIGWVKVYLQYEQKKTDYKPETDVDTISSAACLQVVQNLQPVIVQIKKCVDGENLQNVLTEFGTRLHRVIYDHLQTMQFNTAGAMCAICDVNEYRKCIRELDSPLVTQLFDILHALCNLLLVKPQNLQEVCTGDTLNYLDKSVVRQFIQLRTDFRIIKNTNYLKGIIE
binding: binds

B4: Sec8 (protein, UniProt Q9VNH6 1-985)
chain: MDAPPPTKPPRGVKYGKDESAGCGFLVNVIKSLGFSETTEERQKEKQKIEAEFKRSDLRLNELVSRHDQQLTQVLPLFSQVSSEVTASRERIHAVKENLGVCKRLLQCRRDELRKMWMDAVQHKYVLEMLEQIQELRKVPQRVVGYTAKRQYLHASKALTDALTTLNGPLQAVEGLSDLRTDLQTRRQQLYQRLHEELVTQVYTNSANEALSSFQRTNSSRLNSSFTRGIGARRSTDRIEANARVRKALAEMAQSFDLDKAEVIEDADLIYPELSMSYFVAIIVESFGMLHKVPDSLETLRVQIQTELLNVVRHTTHQLSVSGATADTNPLLSLLEVIFKQFKAIAKTHSLLLKNYLSVGQKYSVVGPQPYDLTDFWAQAQSVLQLLLTDYLDIQNAAADESAQTGFSEPTSNINSYFLRRKVPSTKRSMFKFDKSSHVGTSNNSDAFKEHRRNASDASVDDNLAGQLGGSGKGSTSGLFPHEKKQREKILICTPDQSIITKVYLPLMGYIKEIENFMKCKPGQPCSLHDFLDNYIKDTFLTKGHNRNLQLTIESLSKNQDAWRTIISPEEIKALNLSRPLLQSTVMVERRLMETKNLIQDLPCYSEDLLKMVCALLKAYREICQAAYRGIVQPDSEDKRIYSVAWLKDEDISRFLKTLPNWTDLKTYSQKSRHNRKLHRGSFEPSEEESPLQVQQRNIREAEMLTSNLGEGGITQQEILVEISVLKELAILQESMEWFSCRVSEFANDLRRPLVNGLNAVPAECGADIAVKDGTIKVMTNLALEFDELANTCLLVLHLEVRVQCFHYLRSKSSVRTNSYVGSKDDILEPDRQVQVLTKRLSEMDEAFSATLHPRKTRYIFEGLAHLASRILIQASNYLEHIDQITVQRMCRNAIALQQTLSNITASREVALDQARHFYELLCMEPDEILNALLERGTQFSEMQLLNALQLSCKSFGITDANLLASYQQKLSDILGAKPSKGVVV
binding: binds

B5: Sec6 (protein, UniProt Q9V8K2 1-738)
chain: MDLQQLEEQARQAALKDIQNMLQRPGQLEKVEQYRHRIARKKASVEALLKTGMQGQLDGVRVGLKQLETCMQDVREVRRRMDEVERLLRGVPEVYDALEVVREENTKHSQYATAMENLKHIFNVDASVQKTMALIEDDKLLNAHQCLADLENSRDDLLYELHKQPKQHASDKITLKRHFEKVDTVSQELEKKLRLILSRTLNTLRKKPTIIVTALRIIEREEKNDQFALQQQKVTGFLPPGRPKAWRRMIMDVLQQSVITRIEGSKLEERADNKMWLVRDLEILRQIILEDLRVVKSLCVPCFPPHYDIFGEYVKFYHEGLSSYLDNIVRSGLEGNEYVSMMAWVTHTYPGVELMSHPDLNVDVHRQIGTLLRPEHLKALEDEYLQNMQRNFQEWMTKAAETEKQEWFTETVPDQDEEYYHTSAPVIIFQMIDQHLQVTNTIHQELTFKALVMSIQQVEIFGQTYLKNVIELKEHHFRNRDQIKYFTHYIITIVNNSQQMVELAQQMKQLYWPKSRTEHYEDFERLLATFQRIRAHAASYLLEEAFLDMECHFNDLFTAKWLASNIAVDTICVTLDDYFQDYNHLRPNNFEMVINEAQKLLAKRYIRALLSKRLSKPRAECDAITRKIKTEAKRFKLFFEKIAPKISLSDSPLDLISTLSALLSSDIELLVLDLHTLLGSYPSLNEDHLVRLFYIRNDVKAAEVREKVQDAMKSKKAMVSIAKQDCIFKEIVFSDKLW
binding: binds
